The values that follow come from patent US20040267003A1.

Amino acid sequences for entries named in this document (tags omitted). A change or cut given only in a name is not applied to a line headed by its entry.
UniProt O77681: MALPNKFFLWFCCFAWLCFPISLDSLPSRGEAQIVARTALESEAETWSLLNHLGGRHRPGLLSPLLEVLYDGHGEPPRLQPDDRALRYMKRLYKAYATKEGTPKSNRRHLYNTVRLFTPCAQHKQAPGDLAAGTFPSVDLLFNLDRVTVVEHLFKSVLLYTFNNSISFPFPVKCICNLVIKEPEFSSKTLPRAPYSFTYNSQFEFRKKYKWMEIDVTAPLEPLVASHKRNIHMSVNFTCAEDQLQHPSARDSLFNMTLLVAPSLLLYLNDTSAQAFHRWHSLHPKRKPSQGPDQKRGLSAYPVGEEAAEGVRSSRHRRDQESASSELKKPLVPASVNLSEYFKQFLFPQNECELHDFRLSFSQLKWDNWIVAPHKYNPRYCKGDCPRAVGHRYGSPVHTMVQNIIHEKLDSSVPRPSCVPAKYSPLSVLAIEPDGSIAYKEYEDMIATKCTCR

The assay has as its target ovine GDF-9 expressed in 293T cells (20 kd GDF-9 mature peptide) (sheep) (UniProt O77681). In words: co-immunoprecipitation with anti-FLAG M2 and protein G agarose, Western blot with anti GDF-9 antibodies. (In general: A western blot detects proteins with antibodies after separation by electrophoresis.)

These are yes or no findings as the source states them, for the method shown. Binding seen in cells or lysates may run through a third protein. A result given as binding can be weak or reduced; the word gives no strength. Where a sequence is shown, tags or fusion partners need not be part of it.

B1: oGDF-9B-FLAG (processed ovine GDF-9B with C-terminal 8 amino acid FLAG epitope) (ligand, not shown: small tags and cut ends)
chain: QAGSIASEVPGPSREHDGPESNQCSLHPFQVSFQQLGWDHWIIAPHLYTPNYCKGVCPRVLHYGLNSPNHAIIQNLVSELVDQNVPQPSCVPYKYVPISILLIEANGSILYKEYEGMIAQSCTCR
For the molecule B1, the binding result is listed as “binds”.
